The values that follow come from paper PMC9338940.

Amino acid sequences for entries named in this document (tags omitted). Residues count along the entry.
UniProt P35441, residues 19-1170: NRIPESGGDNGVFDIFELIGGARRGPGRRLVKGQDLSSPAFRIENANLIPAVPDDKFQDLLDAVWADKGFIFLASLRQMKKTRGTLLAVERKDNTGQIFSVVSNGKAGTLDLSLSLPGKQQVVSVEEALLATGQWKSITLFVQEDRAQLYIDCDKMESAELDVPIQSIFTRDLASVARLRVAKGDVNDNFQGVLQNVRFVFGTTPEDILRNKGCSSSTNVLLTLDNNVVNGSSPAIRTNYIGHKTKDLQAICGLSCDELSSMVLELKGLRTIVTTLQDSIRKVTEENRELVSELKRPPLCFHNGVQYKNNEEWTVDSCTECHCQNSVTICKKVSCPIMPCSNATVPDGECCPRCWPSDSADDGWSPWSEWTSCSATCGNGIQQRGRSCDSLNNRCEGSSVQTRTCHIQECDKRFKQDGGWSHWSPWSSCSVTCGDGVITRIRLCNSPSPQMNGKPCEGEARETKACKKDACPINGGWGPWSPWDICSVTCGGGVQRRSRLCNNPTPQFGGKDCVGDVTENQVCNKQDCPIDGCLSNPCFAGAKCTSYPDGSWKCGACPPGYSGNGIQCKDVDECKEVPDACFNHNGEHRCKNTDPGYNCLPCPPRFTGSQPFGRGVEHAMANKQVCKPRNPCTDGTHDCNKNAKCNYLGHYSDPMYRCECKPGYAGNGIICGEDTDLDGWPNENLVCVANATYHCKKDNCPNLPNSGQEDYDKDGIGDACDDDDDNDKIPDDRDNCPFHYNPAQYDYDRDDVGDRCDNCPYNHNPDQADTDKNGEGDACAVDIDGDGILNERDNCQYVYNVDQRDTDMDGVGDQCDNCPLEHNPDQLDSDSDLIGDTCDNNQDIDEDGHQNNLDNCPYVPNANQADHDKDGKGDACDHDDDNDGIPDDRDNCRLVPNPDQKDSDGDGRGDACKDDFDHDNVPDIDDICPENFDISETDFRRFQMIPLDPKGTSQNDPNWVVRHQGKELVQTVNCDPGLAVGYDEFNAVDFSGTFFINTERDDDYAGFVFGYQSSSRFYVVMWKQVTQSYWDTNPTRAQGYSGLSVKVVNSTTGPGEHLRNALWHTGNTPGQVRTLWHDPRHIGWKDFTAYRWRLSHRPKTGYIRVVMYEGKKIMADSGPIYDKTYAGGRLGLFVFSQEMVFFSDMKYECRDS

In the experiment the target is T1, Sestrin2 (mouse (endogenous in conditionally immortalized mouse podocytes)) (UniProt P58043).
T1 sequence: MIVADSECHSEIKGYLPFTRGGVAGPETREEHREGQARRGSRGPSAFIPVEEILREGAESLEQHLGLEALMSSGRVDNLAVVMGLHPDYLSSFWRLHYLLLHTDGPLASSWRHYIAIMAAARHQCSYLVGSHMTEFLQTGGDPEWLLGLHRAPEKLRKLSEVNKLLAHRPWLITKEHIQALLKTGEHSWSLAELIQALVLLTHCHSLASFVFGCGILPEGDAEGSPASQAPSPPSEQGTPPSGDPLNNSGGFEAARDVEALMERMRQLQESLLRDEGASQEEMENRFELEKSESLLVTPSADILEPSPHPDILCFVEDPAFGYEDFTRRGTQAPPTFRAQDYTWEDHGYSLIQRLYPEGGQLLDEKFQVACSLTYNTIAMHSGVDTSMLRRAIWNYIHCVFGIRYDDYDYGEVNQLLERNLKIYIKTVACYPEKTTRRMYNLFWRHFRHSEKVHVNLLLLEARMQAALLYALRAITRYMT
Briefly: co-IP; Sestrin2 antibody (2 ug) on Protein A&G magnetic beads, incubated with podocyte lysate overnight at 4 °C; lysis buffer 50 mM Tris/HCl, 1 mM EDTA, 150 mM NaCl, 0.25% sodium deoxycholate, 1% NP-40, pH 7.4; eluate blotted with TSP-1 antibody; podocytes exposed to high glucose.

No constants are given. Whether binding was seen depends on the method and setting. In cells and extracts the contact can be indirect. Some results given as binding are weak or reduced against the parent protein; the word gives no strength.

Regarding “Thrombospondin-1 (from UniProt P35441 19-1170)”, the binding entry is on record as “binds”.
